Laboratory results as given in patent US20150104459A1.
These are yes or no findings as the source states them, for the method shown. Some results given as binding are weak or reduced against the parent protein; the word gives no strength.

Protein sequences, listed by entry. Tags and fused reporters are not part of them.
UniProt P06821: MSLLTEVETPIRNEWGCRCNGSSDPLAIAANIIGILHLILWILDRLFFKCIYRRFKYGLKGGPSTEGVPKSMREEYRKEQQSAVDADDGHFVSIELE

Target: M2 protein of A/Puerto Rico/8/34 (H1N1) on virus particles (influenza A virus A/Puerto Rico/8/34 (H1N1)) (UniProt P06821)
Experiment: surface plasmon resonance on influenza virus; numbers stand in Table 4

B1: TCN-031 Fab fragment (Fab, V domains shown)
VH: EVQLVESGGGLVQPGGSLRISCAASGFTVSSNYMSWVRQAPGKGLEWVSVIYSGGSTYYADSVKGRFSFSRDNSKNTVFLQMNSLRAEDTAVYYCARCLSRMRGYGLDVWGQGTTVTVS
VL: DIQMTQSPSSLSASVGDRVTITCRTSQSISSYLNWYQQKPGKAPKLLIYAASSLQSGVPSRFSGSGSGTDFTLTISGLQPEDFATYYCQQSYSMPAFGQGTKLEIK
For B1, the binding was “binds”.
